Source: patent publication US20110046207
Construct, isoform or probe ends are uncertain for at least one entry. For some of these results: No signal at the amounts used counts as a negative. For some of these results: Where a protein sequence is shown, tags need not be part of it.

Chains of the proteins cited; added tags and fusions are not shown. A line that says so, or that is headed by a name, gives the form on record, which may keep a tag or linker.
human complement C5 (alpha and beta chain) (Homo sapiens), one chain, as listed by the source: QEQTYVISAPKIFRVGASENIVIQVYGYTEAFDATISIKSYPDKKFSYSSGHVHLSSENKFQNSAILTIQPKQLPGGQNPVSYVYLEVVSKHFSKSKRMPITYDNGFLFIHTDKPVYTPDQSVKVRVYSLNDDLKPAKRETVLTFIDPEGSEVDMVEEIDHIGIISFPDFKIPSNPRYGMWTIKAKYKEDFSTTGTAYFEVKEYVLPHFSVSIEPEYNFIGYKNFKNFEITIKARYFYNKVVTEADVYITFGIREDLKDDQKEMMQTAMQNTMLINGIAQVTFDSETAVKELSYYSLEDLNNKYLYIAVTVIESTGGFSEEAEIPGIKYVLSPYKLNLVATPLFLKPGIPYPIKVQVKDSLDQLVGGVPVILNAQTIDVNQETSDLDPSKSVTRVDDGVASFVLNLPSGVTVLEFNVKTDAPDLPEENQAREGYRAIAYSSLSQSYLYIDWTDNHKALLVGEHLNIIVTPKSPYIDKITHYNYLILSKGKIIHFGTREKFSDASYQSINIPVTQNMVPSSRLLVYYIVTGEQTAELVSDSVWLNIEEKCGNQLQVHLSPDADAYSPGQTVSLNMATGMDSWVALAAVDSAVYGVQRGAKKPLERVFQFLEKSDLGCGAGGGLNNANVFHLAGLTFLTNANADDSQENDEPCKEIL

Tests used:
[1] = target: T1, human C5a (natural L-C5a) (Homo sapiens) (UniProt P01031); experiment: activity assay; conditions: L-RNA, 5'-40 kDa PEG, purified recombinant protein, protein details: recombinant, mirror-image nucleic acid
T1 sequence: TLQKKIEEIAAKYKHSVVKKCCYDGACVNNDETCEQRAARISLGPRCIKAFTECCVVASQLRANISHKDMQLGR

[2] = target: T1, human C5a (natural L-C5a) (Homo sapiens); experiment: activity in cells; conditions: L-RNA, purified recombinant protein, protein details: recombinant, mirror-image nucleic acid
[3] = system: T2, rhesus monkey C5a (His6-macC5a) (Macaca mulatta); experiment: activity in cells; conditions: L-RNA, purified recombinant protein, protein details: His6, E. coli BL21, refolded, mirror-image nucleic acid
T2 sequence: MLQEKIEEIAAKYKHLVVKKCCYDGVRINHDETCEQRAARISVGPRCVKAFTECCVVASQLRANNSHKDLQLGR

[4] = system: human complement C5 (alpha and beta chain) (Homo sapiens); experiment: filter binding; conditions: L-RNA with two 5' D-guanosines, 37 C, comparable to C5a binding, purified native protein, protein details: from human blood, Sigma Aldrich C3160, label: 5'-32P, mirror-image nucleic acid

Q: With “CCCCGGGGGAUAAUUCGUUCAUUUGUGCGGGG [185-H3-014-REVERSE-5'-PEG Spiegelmer]” as the sequence, how does the “functional effect of the aptamer” value ([1]; reverse sequence, stated not to bind C5a, no effect on neutropenia, variant of 185-H3-014-5'-PEG Spiegelmer, dose not given here) read?
A: Its value is “not active”.

Q: How did the IC50 ([2]; 5'-40 kDa PEG, C18-PEG spacer after nt 25, U937 calcium release, variant of 172-D7-013) turn out when “GCGCUUGUCCGAUUGGCGGCACCCUCGGGACUGGGGAGCGC [172-D7-013-5'-PEG Spiegelmer]” was run?
A: Its IC50 is 6.5 nM.

Q: With “GCUGGGCGUGUUUACUUGCUUAAUAGGGGGCCCAGC [185-H3-001 Spiegelmer]” as the sequence, how does the “functional effect of the aptamer” value ([3]; 100 nM Spiegelmer, no inhibition, variant of 185-H3-001) read?
A: Its value is “not active”.

Q: How did the IC50 ([2]; 5'-40 kDa PEG, U937 chemotaxis, 0.1 nM C5a, variant of 185-H3-001 Spiegelmer) turn out when “GCUGGGCGUGUUUACUUGCUUAAUAGGGGGCCCAGC [185-H3-001-5'-PEG Spiegelmer]” was run?
A: Its IC50 is 3.2 nM.

Q: Does “GGAGCGUGCUUGUCCGAUUGGCGGCACCCUUGCGGGACUGGGGAGUACGCU [gg-172-D7-000]” bind ([4]; variant of 172-D7-000 Spiegelmer)?
A: Result: binds

Q: “GGCUGAACACGCCGCGUAGGACCCAAUGGGUAGAAUGGGCAGCC [179-A3-014 Spiegelmer]” was tested. Which IC50 ([2]; U937 chemotaxis, variant of 179-A3-014) did it give?
A: Its IC50 is 0.9 nM.

Q: With “GGCUGAACACGCCGCGUAGGACCCAAUGGGUAGAAUGGGCAGCC [179-A3-014-5'-PEG Spiegelmer]” as the sequence, how does the IC50 ([2]; 5'-40 kDa PEG, U937 chemotaxis, 0.1 nM C5a, variant of 179-A3-014 Spiegelmer) read?
A: Its IC50 is 1.8 nM.

Q: What about the “functional effect of the aptamer” value ([3]; 5'-40 kDa PEG, 100 nM Spiegelmer completely blocks chemotaxis to 0.8 nM monkey C5a, variant of 179-A3-014 Spiegelmer) of the same sequence?
A: Its value is “active”.

Q: Does “GGGCGCUUGUCCGAUUGGCGGCACCCUCGGGACUGGGGAGCGC [gg-172-D7-013]” bind ([4]; C18-PEG spacer after nt 27, variant of 172-D7-013)?
A: Result: binds

Q: Does “GGGCUGAACACGCCGCGUAGGACCCAAUGGGUAGAAUGGGCAGC [gg-179-A3-015]” bind ([4]; variant of 179-A3-015)?
A: Result: binds

Q: Does “GGGCUGGGCGUGUUUACUUGCUUAAUAGGGGGCCCAGC [gg-185-H3-001]” bind ([4]; variant of 185-H3-001 Spiegelmer)?
A: Result: binds

Q: With “GGGGCGUGUUUACUUGCUUAAUAGGGGGCCCC [185-H3-014-5'-PEG Spiegelmer]” as the sequence, how does the “functional effect of the aptamer” value ([1]; attenuates C5a-induced neutropenia in gerbils at 10 mg/kg, not 2 mg/kg, variant of 185-H3-014) read?
A: Its value is “active”.

Q: And the IC50 ([2]; 5'-40 kDa PEG, U937 chemotaxis, 0.1 nM C5a, variant of 185-H3-014)?
A: Its IC50 is 1.5 nM.

Q: What about the “functional effect of the aptamer” value ([3]; 5'-40 kDa PEG, 100 nM Spiegelmer, no inhibition, variant of 185-H3-014) of the same sequence?
A: Its value is “not active”.

Q: Does “GGGGCUGAACACGCCGCGUAGGACCCAAUGGGUAGAAUGGGCAGCC [gg-179-A3-014]” bind ([4]; variant of 179-A3-014 Spiegelmer)?
A: Result: binds

Q: Does “GGGGGCGUGUUUACUUGCUUAAUAGGGGGCCC [gg-185-H3-003]” bind ([4]; variant of 185-H3-003)?
A: Result: binds

Q: Does “GGGGGGCGUGUUUACUUGCUUAAUAGGGGGCCCC [gg-185-H3-014]” bind ([4]; variant of 185-H3-014)?
A: Result: binds

Q: Does “GGGUACUGCGUUCGGACGUGGCAUGUUCCUUGACAAACGGUUGGCAGUAC [gg-182-E5]” bind ([4]; variant of 182-E5 Spiegelmer)?
A: Result: binds

Q: Does “GGGUGCUGCGUUCGGACGUGGCAUGUUCCUUGACAAACGGUUGGCAGCAC [gg-182-C5]” bind ([4]; variant of 182-C5)?
A: Result: binds

Q: Does “GGUGGGCGUGUUUACUUGCUUAAUAGGGGGCCCA [gg-185-H3-002]” bind ([4]; variant of 185-H3-002)?
A: Result: binds

Q: For “GUACUGCGUUCGGACGUGGCAUGUUCCUUGACAAACGGUUGGCAGUAC [182-E5 Spiegelmer]”, which IC50 ([2]; U937 chemotaxis, 0.1 nM C5a, variant of 182-E5) is on record?
A: Its IC50 is 1.2 nM.

Q: For “GUGCUGAACACGCCGCGUAGGACUUCAAUGGAGUAGAAUGGGCAGCAC [179-A3 Spiegelmer]”, which IC50 ([2]; U937 chemotaxis, 0.1 nM C5a, variant of 179-A3) is on record?
A: Its IC50 is 0.9 nM.
